Assay results: publication PMC13193388, “Dimerization‐dependent NOTCH receptor transactivation unveils a class of highly selective NOTCH signalling inhibitors” (The Febs Journal, 2025)
Results are given in words; binding and its absence hold for the method and conditions named. Binding seen in cells or lysates may run through a third protein.

By UniProt entry, the sequences of proteins in these tests, tags left out. Residues count along the entry.
UniProt Q9UM47, residues 40-2321: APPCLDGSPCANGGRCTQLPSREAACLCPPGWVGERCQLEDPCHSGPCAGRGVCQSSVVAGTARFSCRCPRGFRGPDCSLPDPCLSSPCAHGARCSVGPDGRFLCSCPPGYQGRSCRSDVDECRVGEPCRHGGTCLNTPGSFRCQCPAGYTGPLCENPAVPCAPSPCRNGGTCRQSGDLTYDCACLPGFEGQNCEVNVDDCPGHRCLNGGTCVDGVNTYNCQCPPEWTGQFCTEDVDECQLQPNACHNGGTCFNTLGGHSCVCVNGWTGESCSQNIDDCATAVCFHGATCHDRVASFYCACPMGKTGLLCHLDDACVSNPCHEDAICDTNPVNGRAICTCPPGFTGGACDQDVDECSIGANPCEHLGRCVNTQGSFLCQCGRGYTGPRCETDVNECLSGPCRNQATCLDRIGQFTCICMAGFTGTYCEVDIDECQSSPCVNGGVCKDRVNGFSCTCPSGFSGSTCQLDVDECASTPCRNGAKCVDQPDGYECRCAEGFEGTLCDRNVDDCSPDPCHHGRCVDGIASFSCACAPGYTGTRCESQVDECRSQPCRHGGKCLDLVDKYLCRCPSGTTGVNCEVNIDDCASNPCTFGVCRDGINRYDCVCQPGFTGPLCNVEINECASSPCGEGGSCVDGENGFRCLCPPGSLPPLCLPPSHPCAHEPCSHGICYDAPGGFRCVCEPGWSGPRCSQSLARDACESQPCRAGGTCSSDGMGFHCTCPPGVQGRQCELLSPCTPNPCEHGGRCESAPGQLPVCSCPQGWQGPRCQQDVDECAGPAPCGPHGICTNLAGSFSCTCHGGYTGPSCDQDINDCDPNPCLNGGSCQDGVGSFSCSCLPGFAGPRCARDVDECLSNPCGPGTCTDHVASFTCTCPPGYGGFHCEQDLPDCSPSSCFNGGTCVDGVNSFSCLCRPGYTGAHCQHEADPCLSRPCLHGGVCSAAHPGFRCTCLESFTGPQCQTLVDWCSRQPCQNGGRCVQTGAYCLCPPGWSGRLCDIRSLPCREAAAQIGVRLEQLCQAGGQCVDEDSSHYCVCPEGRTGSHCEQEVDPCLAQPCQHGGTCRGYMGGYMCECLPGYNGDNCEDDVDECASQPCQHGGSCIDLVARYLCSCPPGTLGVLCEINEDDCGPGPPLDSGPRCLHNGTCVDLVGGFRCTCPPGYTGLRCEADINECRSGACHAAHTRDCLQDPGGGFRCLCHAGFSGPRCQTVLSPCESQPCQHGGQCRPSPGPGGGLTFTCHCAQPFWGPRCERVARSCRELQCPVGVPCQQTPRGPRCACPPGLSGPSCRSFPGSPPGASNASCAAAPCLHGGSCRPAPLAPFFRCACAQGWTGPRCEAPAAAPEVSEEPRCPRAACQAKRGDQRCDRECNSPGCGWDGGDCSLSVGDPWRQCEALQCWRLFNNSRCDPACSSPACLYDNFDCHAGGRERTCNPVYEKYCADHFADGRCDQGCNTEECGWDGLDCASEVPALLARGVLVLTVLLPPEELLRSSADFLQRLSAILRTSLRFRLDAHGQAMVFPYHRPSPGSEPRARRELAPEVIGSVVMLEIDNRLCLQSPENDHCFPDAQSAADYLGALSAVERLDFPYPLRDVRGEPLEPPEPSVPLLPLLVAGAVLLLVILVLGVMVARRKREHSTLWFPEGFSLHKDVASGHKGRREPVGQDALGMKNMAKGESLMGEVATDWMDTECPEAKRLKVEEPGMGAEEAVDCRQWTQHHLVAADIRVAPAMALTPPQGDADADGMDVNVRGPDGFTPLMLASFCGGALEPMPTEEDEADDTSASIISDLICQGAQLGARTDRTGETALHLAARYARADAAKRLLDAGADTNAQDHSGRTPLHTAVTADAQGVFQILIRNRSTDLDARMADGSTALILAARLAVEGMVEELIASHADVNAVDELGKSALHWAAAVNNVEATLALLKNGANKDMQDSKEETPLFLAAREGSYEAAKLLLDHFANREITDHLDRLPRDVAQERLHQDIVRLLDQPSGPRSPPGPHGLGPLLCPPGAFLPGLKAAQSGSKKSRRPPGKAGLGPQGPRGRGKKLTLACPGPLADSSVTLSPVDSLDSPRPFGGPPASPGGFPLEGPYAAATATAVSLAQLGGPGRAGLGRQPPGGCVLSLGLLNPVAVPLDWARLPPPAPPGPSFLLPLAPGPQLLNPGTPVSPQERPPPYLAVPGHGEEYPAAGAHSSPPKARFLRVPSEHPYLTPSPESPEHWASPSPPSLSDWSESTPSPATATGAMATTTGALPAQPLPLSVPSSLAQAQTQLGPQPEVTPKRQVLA

Biological target: HIS epitope-tagged full-length NOTCH3 (human) (UniProt Q9UM47)
Experiment: co-IP; HA and HIS epitope-tagged constructs cotransfected into 293T cells; immunoprecipitation, Western blot

binding: no binding
Substance: HA epitope-tagged full-length NOTCH3 lacking the dimerization motif (from UniProt Q9UM47) (receptor)
